Earlier results as cited in PMC12670427, “FDA Drug Repurposing Uncovers Modulators of Dopamine D2 Receptor Localization via Disruption of the NCS‑1 Interaction” (Journal of Medicinal Chemistry, 2025).

Settings: known drug property listed in Supplementary Table 1, no reference given; cited from earlier work

Structure (SMILES): CC(C)c1c(C(=O)Nc2ccccc2)c(-c2ccccc2)c(-c2ccc(F)cc2)n1CC[C@@H](O)C[C@@H](O)CC(=O)O [Atorvastatin]
- Crossing the blood-brain barrier: Yes
